# According to PMC5021965 (Scientific Reports, 2016):
# Experiments:
# diabetic rats = settings: DM-AM: 20 mg/kg, 10 days
# in vivo = settings: male, rat, po, 40 mg/kg
# primary rat hepatocytes [1] = assay: ROS generation in primary rat hepatocytes (DCFH-DA probe); type: cell-based; settings: primary rat hepatocytes, 2, 10 and 30 μM, 96 h
# Description: (§1) Another subset of experimental rats (CON, HFD and DM rats) were used for the primary rat hepatocytes isolation. […] Primary hepatocytes were isolated from experimental rats in a modified two-step collagenase perfusion method as previously reported. An aliquot of the hepatocyte suspension (at a density of 2.5 × 10^5/ml) was seeded in collagen-precoated plates. Following 4-h incubation, the medium was replaced with 500 μl fresh cultured medium. Twenty-four hours after plating, the medium was removed and the hepatocytes were overlaid with BD matrigel (0.25 mg/ml) in feeding medium (DMEM containing […] dexamethasone and 1% ITS) and cultured for another 24 h at 37 °C in a humidified atmosphere containing 5% CO2 for following experiments.
# (§2) ROS generation was simultaneously measured using DCFH-DA as a fluorescent probe.
# primary rat hepatocytes [2] = assay: Hepatotoxicity in primary rat hepatocytes (MTT cell viability, LDH release); settings: 96 h
# Description: as §1, §2
compound,measurement,setting,value
"CC(C)c1c(C(=O)Nc2ccccc2)c(-c2ccccc2)c(-c2ccc(F)cc2)n1CC[C@@H](O)C[C@@H](O)CC(=O)O [atorvastatin, Atorvastatin calcium]",level of GSSG/T-GSH in liver compared with DM rats,diabetic rats,significant increase
same,AUC,in vivo; AUC,1350 ng·h/mL
same,Cmax,in vivo; Cmax,194 ± 24.9 ng/mL
same,generation of ROS,primary rat hepatocytes [1],concentration-dependently increased
same,hepatotoxicity in primary hepatocytes of CON rats,primary rat hepatocytes [2]; only at high concentration (30 μM),obvious hepatotoxicity
same,decrease of cell viability compared with vehicle treatment,"primary rat hepatocytes [2]; primary hepatocytes of DM rats, 30 μM",50%
